# Measurements reported in the supplement of paper PMC8728848.
# The other results are listed elsewhere or left out.
# B1: SJCP1084 (Schistosoma japonicum) (protein)
# chain: MRIINLVIISTALLLINLLQTKSQANGEDTKNGTPDDPGLTKSTELKVEVQALLKDKKTNMRVKWNENLLDNTKPEYHNLRDEACELLLQIVRSVVPLSQDDGECKDVTFTKYVVGTKDGAVNVKLTITFKDSVAINQKPMDLKLKLENDFKNLQSESTLKATKPTFTVKVEKRLIPISKPQTTPPTTAKNDASKENVGDIGGEDSTVPTAAPATAASANEEKDEGDKDNKDSQHPNVLTSNVNDRNLIIALVALMILAIGVALTAAVKQR
# Tests used:
# Assay in all cases: glycan array binding signal (z-score within array); higher = stronger binding
# Conditions in all cases: glycan notation: IUPAC condensed, linker removed
# [1] = biological target: Man(a1-2)Man(a1-3)[Man(a1-2)Man(a1-6)]Man(a1-6)[Man(a1-2)Man(a1-2)Man(a1-3)]Man
# In short: (§1)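 Glycan array data came from 3228 arrays in the Consortium for Functional Glycomics database, and only arrays with an available protein sequence were kept. Glycan names were put into IUPAC-condensed notation, and columns mapping to the same glycan were averaged. The binding signal is a within-array Z-score, averaged across arrays of one protein sequence run at different concentrations or buffers and across linkers. A negative Z-score can be read as non-binding.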
# [2] = biological target: Man(a1-2)Man(a1-3)[Man(a1-2)Man(a1-6)]Man(a1-6)[Man(a1-2)Man(a1-2)Man(a1-3)]Man(b1-4)GlcNAc(b1-4)GlcNAc
# In short: as §1
# [3] = biological target: Man(a1-2)Man(a1-3)[Man(a1-6)]Man(a1-6)[Man(a1-2)Man(a1-3)]Man(b1-4)GlcNAc(b1-4)GlcNAc
# In short: as §1
# [4] = biological target: Man(a1-2)Man(a1-6)[Man(a1-3)]Man(a1-6)[Man(a1-2)Man(a1-2)Man(a1-3)]Man
# In short: as §1
# [5] = biological target: Man(a1-2)Man(a1-6)[Man(a1-3)]Man(a1-6)[Man(a1-2)Man(a1-2)Man(a1-3)]Man(b1-4)GlcNAc(b1-4)GlcNAc
# In short: as §1
# [6] = biological target: Man(a1-3)[Man(a1-6)]Man
# In short: as §1
# [7] = biological target: Man(a1-3)[Man(a1-6)]Man(a1-6)[Man(a1-2)Man(a1-3)]Man(b1-4)GlcNAc(b1-4)GlcNAc
# In short: as §1
# [8] = biological target: Man(a1-3)[Man(a1-6)]Man(a1-6)[Man(a1-3)]Man
# In short: as §1
# [9] = biological target: Man(a1-3)[Man(a1-6)]Man(a1-6)[Man(a1-3)]Man(b1-4)GlcNAc(b1-4)GlcNAc
# In short: as §1
# [10] = biological target: Man(a1-3)[Man(a1-6)]Man(b1-4)GlcNAc(b1-4)GlcNAc
# In short: as §1
# [11] = biological target: Man(a1-3)[Man(a1-6)]Man(b1-4)GlcNAc(b1-4)[Fuc(a1-6)]GlcNAc
# In short: as §1
# [12] = biological target: Man(a1-6)Man
# In short: as §1
# [13] = biological target: Man(b1-4)GlcNAc
# In short: as §1
# [14] = biological target: MurNAc(b1-4)GlcNAc
# In short: as §1
# [15] = biological target: Neu5Ac(a2-3)Gal
# In short: as §1
# [16] = biological target: Neu5Ac(a2-3)Gal(b1-3)GalNAc
# In short: as §1
# [17] = biological target: Neu5Ac(a2-3)Gal(b1-3)GalNAc(b1-3)Gal(a1-4)Gal(b1-4)Glc
# In short: as §1
# [18] = biological target: Neu5Ac(a2-3)Gal(b1-3)GalNAc(b1-4)Gal(b1-4)Glc
# In short: as §1
# [19] = biological target: Neu5Ac(a2-3)Gal(b1-3)GalNAc(b1-4)[Neu5Ac(a2-3)]Gal(b1-4)Glc
# In short: as §1
# [20] = biological target: Neu5Ac(a2-3)Gal(b1-3)GalNAc(b1-4)[Neu5Ac(a2-8)Neu5Ac(a2-3)]Gal(b1-4)Glc
# In short: as §1
# [21] = biological target: Neu5Ac(a2-3)Gal(b1-3)GalNAc6S
# In short: as §1
# [22] = biological target: Neu5Ac(a2-3)Gal(b1-3)GlcNAc
# In short: as §1
# [23] = biological target: Neu5Ac(a2-3)Gal(b1-3)GlcNAc(b1-2)Man
# In short: as §1
# [24] = biological target: Neu5Ac(a2-3)Gal(b1-3)GlcNAc(b1-2)Man(a1-3)[GlcNAc(b1-4)][Neu5Ac(a2-3)Gal(b1-3)GlcNAc(b1-2)Man(a1-6)]Man(b1-4)GlcNAc(b1-4)GlcNAc
# In short: as §1
# [25] = biological target: Neu5Ac(a2-3)Gal(b1-3)GlcNAc(b1-2)Man(a1-3)[Neu5Ac(a2-3)Gal(b1-3)GlcNAc(b1-2)Man(a1-6)]Man(b1-4)GlcNAc(b1-4)GlcNAc
# In short: as §1
# [26] = biological target: Neu5Ac(a2-3)Gal(b1-3)GlcNAc(b1-2)[Neu5Ac(a2-3)Gal(b1-3)GlcNAc(b1-4)]Man(a1-6)[Neu5Ac(a2-3)Gal(b1-3)GlcNAc(b1-2)Man(a1-3)]Man(b1-4)GlcNAc(b1-4)GlcNAc
# In short: as §1
# [27] = biological target: Neu5Ac(a2-3)Gal(b1-3)GlcNAc(b1-3)Gal(b1-3)GlcNAc
# In short: as §1
# [28] = biological target: Neu5Ac(a2-3)Gal(b1-3)GlcNAc(b1-3)Gal(b1-4)GlcNAc
# In short: as §1
# [29] = biological target: Neu5Ac(a2-3)Gal(b1-3)GlcNAc(b1-3)GalNAc
# In short: as §1
# [30] = biological target: Neu5Ac(a2-3)Gal(b1-3)GlcNAc(b1-6)GalNAc
# In short: as §1
# [31] = biological target: Neu5Ac(a2-3)Gal(b1-3)GlcNAc6S
# In short: as §1
# [32] = biological target: Neu5Ac(a2-3)Gal(b1-3)[Fuc(a1-4)]GlcNAc
# In short: as §1
# [33] = biological target: Neu5Ac(a2-3)Gal(b1-3)[Fuc(a1-4)]GlcNAc(b1-3)Gal(b1-3)[Fuc(a1-4)]GlcNAc
# In short: as §1
# [34] = biological target: Neu5Ac(a2-3)Gal(b1-3)[Fuc(a1-4)]GlcNAc(b1-3)Gal(b1-4)[Fuc(a1-3)]GlcNAc
# In short: as §1
# [35] = biological target: Neu5Ac(a2-3)Gal(b1-3)[GlcNAc(b1-6)]GalNAc
# In short: as §1
# [36] = biological target: Neu5Ac(a2-3)Gal(b1-3)[Neu5Ac(a2-6)]GalNAc
# In short: as §1
# [37] = biological target: Neu5Ac(a2-3)Gal(b1-3)[Neu5Ac(a2-6)]GlcNAc(b1-3)[Fuc(a1-3)[Gal(b1-4)]GlcNAc(b1-6)]Gal(b1-4)Glc
# In short: as §1
# [38] = biological target: Neu5Ac(a2-3)Gal(b1-3)]Neu5Ac(a2-3)Gal(b1-4)]GlcNAc
# In short: as §1
# [39] = biological target: Neu5Ac(a2-3)Gal(b1-4)Glc
# In short: as §1
# [40] = biological target: Neu5Ac(a2-3)Gal(b1-4)GlcNAc
# In short: as §1
# [41] = biological target: Neu5Ac(a2-3)Gal(b1-4)GlcNAc(b1-2)Man
# In short: as §1
# [42] = biological target: Neu5Ac(a2-3)Gal(b1-4)GlcNAc(b1-2)Man(a1-3)[GlcNAc(b1-4)][Neu5Ac(a2-3)Gal(b1-4)GlcNAc(b1-2)Man(a1-6)]Man(b1-4)GlcNAc(b1-4)GlcNAc
# In short: as §1
# [43] = biological target: Neu5Ac(a2-3)Gal(b1-4)GlcNAc(b1-2)Man(a1-3)[Neu5Ac(a2-3)Gal(b1-4)GlcNAc(b1-2)Man(a1-6)]Man(b1-4)GlcNAc(b1-4)GlcNAc
# In short: as §1
# [44] = biological target: Neu5Ac(a2-3)Gal(b1-4)GlcNAc(b1-2)Man(a1-3)[Neu5Ac(a2-3)Gal(b1-4)GlcNAc(b1-2)Man(a1-6)]Man(b1-4)GlcNAc(b1-4)[Fuc(a1-6)]GlcNAc
# In short: as §1
# [45] = biological target: Neu5Ac(a2-3)Gal(b1-4)GlcNAc(b1-2)Man(a1-3)[Neu5Ac(a2-6)Gal(b1-4)GlcNAc(b1-2)Man(a1-6)]Man(b1-4)GlcNAc(b1-4)GlcNAc
# In short: as §1
binder,measurement,setting,value
B1,glycan array binding signal (z-score),[1],0.289
same,glycan array binding signal (z-score),[2],-1.47
same,glycan array binding signal (z-score),[3],-1.28
same,glycan array binding signal (z-score),[4],0.462
same,glycan array binding signal (z-score),[5],0.087
same,glycan array binding signal (z-score),[6],0.411
same,glycan array binding signal (z-score),[7],-0.213
same,glycan array binding signal (z-score),[8],-0.67
same,glycan array binding signal (z-score),[9],-1.12
same,glycan array binding signal (z-score),[10],-0.739
same,glycan array binding signal (z-score),[11],-0.869
same,glycan array binding signal (z-score),[12],-1.01
same,glycan array binding signal (z-score),[13],0.833
same,glycan array binding signal (z-score),[14],1.04
same,glycan array binding signal (z-score),[15],-1.65
same,glycan array binding signal (z-score),[16],-0.71
same,glycan array binding signal (z-score),[17],0.037
same,glycan array binding signal (z-score),[18],-0.384
same,glycan array binding signal (z-score),[19],-0.565
same,glycan array binding signal (z-score),[20],-1.13
same,glycan array binding signal (z-score),[21],0.118
same,glycan array binding signal (z-score),[22],0.547
same,glycan array binding signal (z-score),[23],-0.083
same,glycan array binding signal (z-score),[24],-0.628
same,glycan array binding signal (z-score),[25],-0.009
same,glycan array binding signal (z-score),[26],-0.197
same,glycan array binding signal (z-score),[27],0.24
same,glycan array binding signal (z-score),[28],0.519
same,glycan array binding signal (z-score),[29],-1.48
same,glycan array binding signal (z-score),[30],0.08
same,glycan array binding signal (z-score),[31],0.978
same,glycan array binding signal (z-score),[32],1.36
same,glycan array binding signal (z-score),[33],-0.405
same,glycan array binding signal (z-score),[34],0.148
same,glycan array binding signal (z-score),[35],-0.163
same,glycan array binding signal (z-score),[36],-0.036
same,glycan array binding signal (z-score),[37],-0.152
same,glycan array binding signal (z-score),[38],1.15
same,glycan array binding signal (z-score),[39],-0.493
same,glycan array binding signal (z-score),[40],-0.092
same,glycan array binding signal (z-score),[41],0.272
same,glycan array binding signal (z-score),[42],0.34
same,glycan array binding signal (z-score),[43],0.105
same,glycan array binding signal (z-score),[44],0.047
same,glycan array binding signal (z-score),[45],-0.163

# In another format: entries from further up.
binder | measurement | setting | value
B1 | glycan array binding signal (z-score) | [3] | -1.28
same | glycan array binding signal (z-score) | [9] | -1.12
same | glycan array binding signal (z-score) | [12] | -1.01
same | glycan array binding signal (z-score) | [17] | 0.037
same | glycan array binding signal (z-score) | [25] | -0.009
same | glycan array binding signal (z-score) | [30] | 0.08
same | glycan array binding signal (z-score) | [31] | 0.978
same | glycan array binding signal (z-score) | [33] | -0.405
same | glycan array binding signal (z-score) | [35] | -0.163
same | glycan array binding signal (z-score) | [37] | -0.152
same | glycan array binding signal (z-score) | [38] | 1.15
same | glycan array binding signal (z-score) | [45] | -0.163
